Reference: PubChem BioAssay AID445 (National Center for Advancing Translational Sciences (NCATS), 2006)
The list shows a part of the results. The main result of the screen is listed elsewhere. These columns were measured beside it and carry no call. Compounds called inactive in the main read-out are mostly missing here. Potencies come from curve fits of mixed quality, noted in brackets.

Test: IkB Signaling
Details: ABC-DLBCL IkBa-CBG/CBR dual luciferase ratio (green luciferase fused to IkBa over red control in OCI-Ly3 lymphoma cells), 4 h; measured here: control luc red channel unless noted
Summary of the method: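 In this assay, an IκBα–CBG68 fusion accumulates when IKK-driven degradation is blocked; native CBR normalizes for cell number. OCI-Ly3 cells were treated 4 h with compound and doxycycline, then green and red light read after Chroma-Glo addition.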

Row | SMILES | AC50
1 | Cc1ccc(NC(=O)c2ccc(NC(=O)N3CCSc4nc(C)cc(C)c43)cc2)c(Cl)c1 | 31.6 µM [rising, partial curve]
2 | O=C(Nc1cccc(Oc2ccc3c(c2)C(=O)NC3=O)c1)c1ccco1 | 12.6 µM [falling, partial curve]
3 | COCCN1C(=O)c2[nH]nc(-c3ccccc3O)c2C1c1ccc(Cl)c(Cl)c1 (stereo not given) | 25.1 µM [falling, single point]
4 | COc1ccc(CCNC(=O)c2ccc3c(c2)N(Cc2ccccc2F)C(=O)c2ccccc2S3(=O)=O)cc1OC | 0.501 µM [rising, full curve]
5 | Cc1ccc(CN(Cc2ccco2)C(=O)COc2cc(C)c(Cl)c(C)c2)cc1 | 12.6 µM [falling, partial curve]
6 | Cc1cc(C(=O)CNCc2ccco2)c(C)n1-c1ccc(F)cc1 | 12.6 µM [falling, partial curve]
7 | CCN(CC)c1cc(C)c2cc(NC(=O)c3ccccc3OC)ccc2n1 | 31.6 µM [falling, single point]
8 | O=C(Nc1nc(-c2cccs2)cs1)c1ccc(S(=O)(=O)N2CCCCC2)cc1 | 5.01 µM [falling, partial curve]
9 | CSc1ccccc1NC(=O)CSc1nnnn1-c1ccccc1SC | 7.94 µM [falling, partial curve]
10 | O=C(Cn1ncc2c(=O)oc3ccccc3c21)NC1CC1 | 12.6 µM [falling, partial curve]
11 | CCn1c(=O)c2sccc2n2c(CCCC(=O)N3CCN(c4cc(Cl)ccc4C)CC3)nnc12 | 20 µM [falling, single point]
12 | O=C(CSc1nc(-c2ccc(F)cc2)[nH]c1-c1ccccc1)NCC1CCCO1 (stereo not given) | 12.6 µM [falling, partial curve]
13 | N#CC1=C(N)SC(N)=C(C#N)C1Cc1ccccc1 | 3.98 µM [falling, full curve, poor fit]
14 | COc1ccccc1N1CCN(c2ncccc2-c2nc(-c3ccc(Cl)cc3)no2)CC1 | 3.16 µM [falling, single point]
15 | CC1CCN(C(=O)CSc2nc(-c3ccccc3)no2)CC1 | 6.31 µM [falling, partial curve]
16 | COc1cc(C(=O)N2CCC(c3nc4ccccc4o3)CC2)cc(OC)c1OC | 20 µM [falling, partial curve, poor fit]
17 | Cc1c(NS(=O)(=O)c2ccccc2)cc(C(C)C)c(O)c1S(=O)(=O)c1ccc(Cl)cc1 | 15.8 µM [falling, partial curve]
18 | CCOc1ccc(C(=O)c2cn(Cc3ccccc3OC)c3ccc(F)cc3c2=O)cc1 | 39.8 µM [falling, single point]
19 | CC(=O)Nc1ccc(NC(=O)CSc2nc3ccccc3nc2N2CCOCC2)cc1 | 25.1 µM [falling, single point]
20 | Oc1c(C(c2ccccc2Cl)N2CCCC2)sc2nc(-c3ccco3)nn12 (stereo not given) | 3.16 µM [rising, partial curve]

Compounds from the list above with two or more sulfur atoms:
Row | SMILES | AC50
8 | O=C(Nc1nc(-c2cccs2)cs1)c1ccc(S(=O)(=O)N2CCCCC2)cc1 | 5.01 µM [falling, partial curve]
9 | CSc1ccccc1NC(=O)CSc1nnnn1-c1ccccc1SC | 7.94 µM [falling, partial curve]
17 | Cc1c(NS(=O)(=O)c2ccccc2)cc(C(C)C)c(O)c1S(=O)(=O)c1ccc(Cl)cc1 | 15.8 µM [falling, partial curve]

The listing continues.

Row | SMILES | AC50
21 | COc1ccc(C(c2nnnn2C2CCCC2)N2CCc3ccccc3C2)cc1OC (stereo not given) | 31.6 µM [falling, partial curve]
22 | Oc1c(-c2cc(-c3ccco3)[nH]n2)ccc2ccccc12 | 12.6 µM [falling, partial curve]
23 | COCCn1c(SCc2csc(-c3ccccc3)n2)nc2ccccc21 | 31.6 µM [falling, partial curve]
24 | Cc1cccc(N2CCCn3c2nc2c3c(=O)n(CC(=O)OCc3ccccc3)c(=O)n2C)c1 | 6.31 µM [falling, partial curve]
25 | COc1ccc(CCNc2ncnc3c2cnn3-c2ccc(C)cc2)cc1 | 12.6 µM [falling, partial curve]
26 | OC(COc1ccc(Cl)c2ccccc12)CN1CCN(c2ccccn2)CC1 (stereo not given) | 10 µM [falling, partial curve]
27 | CN1C(=O)c2ccccc2Sc2ccc(NC(=O)COc3ccc(F)cc3)cc21 | 25.1 µM [falling, partial curve]
28 | COC(=O)c1ccc(OCC2c3cc(OC)c(OC)cc3CCN2C(=O)c2cccc(C)c2)cc1 (stereo not given) | 39.8 µM [falling, single point]
29 | COc1cccc(N2CCN(C(=O)CN3CCSc4ccc(S(=O)(=O)N(C)C)cc43)CC2)c1 | 10 µM [falling, partial curve, poor fit]
30 | CC(C)CCNC(=O)NC(=O)CSc1nnc(COc2ccccc2Cl)o1 | 39.8 µM [falling, single point]
31 | COc1cccc(CNC(=O)Cn2c(=O)n3nc(-c4cccc(C)c4)nc3c3ccccc32)c1 | 15.8 µM [rising, partial curve]
32 | O=C(Cn1nc(Cc2cccnc2)c2ccccc2c1=O)N1CCN(c2ccc(F)cc2)CC1 | 2 µM [falling, partial curve, poor fit]
33 | COc1ccc(Nc2ncnc3onc(C)c23)cc1Cl | 39.8 µM [falling, single point]
34 | CCCSCCCNC(=O)C1CCCN(C(=O)c2cnn(-c3ccccc3)c2-n2cccc2)C1 (stereo not given) | 20 µM [falling, single point]
35 | Cc1ccc(CCNC(=O)c2ccc3c(c2)N(Cc2cc(C)ccc2C)C(=O)c2ccccc2S3=O)cc1 (stereo not given) | 1.26 µM [falling, full curve]
36 | Cc1cc(C)cc(NS(=O)(=O)c2ccc(-c3cc(C)no3)cc2)c1 | 15.8 µM [falling, partial curve]
37 | CCOC(=O)c1cccc(NS(=O)(=O)c2cc(Br)cc3c2N(C(=O)C2CC2)CC3)c1 | 10 µM [falling, partial curve]
38 | O=C(CCNS(=O)(=O)c1cccc2nsnc12)Nc1ccc(F)cc1 | 0.0631 µM [falling, full curve, poor fit]
39 | Cc1csc2nc(-c3cccc(NC(=O)c4ccc(S(N)(=O)=O)cc4)c3)cn12 | 39.8 µM [falling, single point]
40 | COc1ccc(-c2nc3cc(NC(=O)COc4ccc(F)cc4)ccc3o2)cc1 | 3.16 µM [rising, full curve]
